The source of these data is US20260184815A1.

Protein sequences, listed by entry. Tags and fused reporters are not part of them. Lines headed by an entry give the natural chain unless they say otherwise; changes in a name come on top. Residues count along the entry.
UniProt P01042, residues 19-644: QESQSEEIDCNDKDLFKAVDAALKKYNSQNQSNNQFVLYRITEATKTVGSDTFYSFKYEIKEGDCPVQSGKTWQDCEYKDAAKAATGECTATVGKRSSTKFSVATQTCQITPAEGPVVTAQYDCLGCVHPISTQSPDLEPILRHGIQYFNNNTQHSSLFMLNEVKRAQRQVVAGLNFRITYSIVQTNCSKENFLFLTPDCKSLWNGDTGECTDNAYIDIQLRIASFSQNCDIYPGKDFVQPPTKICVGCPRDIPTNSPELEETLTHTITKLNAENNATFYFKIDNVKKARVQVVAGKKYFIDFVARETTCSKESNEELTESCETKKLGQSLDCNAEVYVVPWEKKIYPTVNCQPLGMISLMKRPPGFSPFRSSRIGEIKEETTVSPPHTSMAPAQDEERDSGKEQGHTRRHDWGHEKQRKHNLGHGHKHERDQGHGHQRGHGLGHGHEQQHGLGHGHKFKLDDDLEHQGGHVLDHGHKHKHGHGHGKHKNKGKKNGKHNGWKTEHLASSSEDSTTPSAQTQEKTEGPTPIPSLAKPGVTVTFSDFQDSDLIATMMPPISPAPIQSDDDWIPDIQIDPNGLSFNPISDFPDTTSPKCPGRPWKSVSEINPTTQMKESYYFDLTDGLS
UniProt P03952: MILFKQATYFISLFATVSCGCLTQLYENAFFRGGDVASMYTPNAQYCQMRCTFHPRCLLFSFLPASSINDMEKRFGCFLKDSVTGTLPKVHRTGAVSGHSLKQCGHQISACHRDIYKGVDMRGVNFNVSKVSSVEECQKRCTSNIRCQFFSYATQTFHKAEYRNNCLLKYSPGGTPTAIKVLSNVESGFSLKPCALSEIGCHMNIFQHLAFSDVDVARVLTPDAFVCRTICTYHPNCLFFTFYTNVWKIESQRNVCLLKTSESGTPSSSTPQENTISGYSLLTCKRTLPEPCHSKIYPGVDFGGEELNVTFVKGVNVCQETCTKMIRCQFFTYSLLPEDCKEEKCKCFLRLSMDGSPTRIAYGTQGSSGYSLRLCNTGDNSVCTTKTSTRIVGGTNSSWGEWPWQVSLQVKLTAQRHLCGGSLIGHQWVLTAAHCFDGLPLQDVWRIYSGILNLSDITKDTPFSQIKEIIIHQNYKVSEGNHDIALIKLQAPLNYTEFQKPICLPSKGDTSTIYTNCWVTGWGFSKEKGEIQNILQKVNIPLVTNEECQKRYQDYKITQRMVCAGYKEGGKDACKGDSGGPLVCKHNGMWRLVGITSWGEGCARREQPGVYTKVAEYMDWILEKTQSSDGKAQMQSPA

In the test the target is high molecular weight kininogen (UniProt P01042). Kind of test: Biacore.

No constants are given. Whether binding was seen depends on the method and setting. Some entries that bind do so weakly or less than the wild type.

For “human plasma kallikrein (from UniProt P03952 20-390; P03952 391-638) (enzyme)”, the binding result is recorded as “binds”.
